No constants are given. Whether binding was seen depends on the method and setting. Some results given as binding are weak or reduced against the parent protein; the word gives no strength.
B1: hzsp34.78 (antibody, human IgG1, lambda, L234A L235A, V domains shown)
VH: EVQLVESGGGLVQPGGSLKLSCAASGFTFGTYAMNWVRQASGKGLEWVGRIRSKYNNYATYYADSVKDRFTISRDDSKSTLYLQMNSLKTEDTAVYYCARHGNFGQSYVSWFAYWGQGTTVTVSS
VL: QAVVTQEPSLTVSPGGTVTLTCRSSTGAVTTSNYANWVQQKPGQAPRGLIGGTNKRAPGVPARFSGSLLGDKAALTLLGAQPEDEAEYYCALWYSNLWVFGQGTKLTVLG
B2: hzsp34.104 (antibody, human IgG1, lambda, L234A L235A, V domains shown)
VH: EVQLVESGGGLVQPGGSLKLSCAASGFTFNTYAMNWVRQASGKGLEWVGRIRSKYNNYATYYADSVKDRFTISRDDSKSTLYLQMNSLKTEDTAVYYCARHGNFGQSYVSWFAYWGQGTTVTVSS
VL: QAVVTQEPSLTVSPGGTVTLTCRSSTGAVTGSNYANWVQQKPGQAPRGLIGGTNKRAPGVPARFSGSLLGDKAALTLLGAQPEDEAEYYCALWYSNLWVFGQGTKLTVLG
B3: hzsp34.83 (antibody, human IgG1, lambda, L234A L235A, V domains shown)
VH: EVQLVESGGGLVQPGGSLKLSCAASGFTFNTYAMNWVRQASGKGLEWVGRIRSKANNYATYYADSVKDRFTISRDDSKSTLYLQMNSLKTEDTAVYYCARHGNFGQSYVSWFAYWGQGTTVTVSS
VL: QAVVTQEPSLTVSPGGTVTLTCRSSTGAVTTSNYANWVQQKPGQAPRGLIGGTNKRAPGVPARFSGSLLGDKAALTLLGAQPEDEAEYYCALWYSNLWVFGQGTKLTVLG
B4: hzsp34.94 (antibody, human IgG1, lambda, L234A L235A, V domains shown)
VH: EVQLVESGGGLVQPGGSLKLSCAASGFTFNTYAMNWVRQASGKGLEWVGRIRSKYNNYATYYADSVKDRFTISRDDSKSTLYLQMNSLKTEDTAVYYCARHGNFGQSYASWFAYWGQGTTVTVSS
VL: QAVVTQEPSLTVSPGGTVTLTCRSSTGAVTTSNYANWVQQKPGQAPRGLIGGTNKRAPGVPARFSGSLLGDKAALTLLGAQPEDEAEYYCALWYSNLWVFGQGTKLTVLG
B5: hzsp34.92 (antibody, human IgG1, lambda, L234A L235A, V domains shown)
VH: EVQLVESGGGLVQPGGSLKLSCAASGFTFNTYAMNWVRQASGKGLEWVGRIRSKYNNYATYYADSVKDRFTISRDDSKSTLYLQMNSLKTEDTAVYYCARHGNFGQRYVSWFAYWGQGTTVTVSS
VL: QAVVTQEPSLTVSPGGTVTLTCRSSTGAVTTSNYANWVQQKPGQAPRGLIGGTNKRAPGVPARFSGSLLGDKAALTLLGAQPEDEAEYYCALWYSNLWVFGQGTKLTVLG
B6: hzsp34.103 (antibody, human IgG1, lambda, L234A L235A, V domains shown)
VH: EVQLVESGGGLVQPGGSLKLSCAASGFTFNTYAMNWVRQASGKGLEWVGRIRSKYNNYATYYADSVKDRFTISRDDSKSTLYLQMNSLKTEDTAVYYCARHGNFGQSYVSWFAYWGQGTTVTVSS
VL: QAVVTQEPSLTVSPGGTVTLTCRSSTGAVGTSNYANWVQQKPGQAPRGLIGGTNKRAPGVPARFSGSLLGDKAALTLLGAQPEDEAEYYCALWYSNLWVFGQGTKLTVLG
B7: hzsp34.93 (antibody, human IgG1, lambda, L234A L235A, V domains shown)
VH: EVQLVESGGGLVQPGGSLKLSCAASGFTFNTYAMNWVRQASGKGLEWVGRIRSKYNNYATYYADSVKDRFTISRDDSKSTLYLQMNSLKTEDTAVYYCARHGNFGQSAVSWFAYWGQGTTVTVSS
VL: QAVVTQEPSLTVSPGGTVTLTCRSSTGAVTTSNYANWVQQKPGQAPRGLIGGTNKRAPGVPARFSGSLLGDKAALTLLGAQPEDEAEYYCALWYSNLWVFGQGTKLTVLG
B8: hzsp34.102 (antibody, human IgG1, lambda, L234A L235A, V domains shown)
VH: EVQLVESGGGLVQPGGSLKLSCAASGFTFNTYAMNWVRQASGKGLEWVGRIRSKYNNYATYYADSVKDRFTISRDDSKSTLYLQMNSLKTEDTAVYYCARHGNFGQSYVSWFAYWGQGTTVTVSS
VL: QAVVTQEPSLTVSPGGTVTLTCGSSTGAVTTSNYANWVQQKPGQAPRGLIGGTNKRAPGVPARFSGSLLGDKAALTLLGAQPEDEAEYYCALWYSNLWVFGQGTKLTVLG
B9: hzsp34.105 (antibody, human IgG1, lambda, L234A L235A, V domains shown)
VH: EVQLVESGGGLVQPGGSLKLSCAASGFTFNTYAMNWVRQASGKGLEWVGRIRSKYNNYATYYADSVKDRFTISRDDSKSTLYLQMNSLKTEDTAVYYCARHGNFGQSYVSWFAYWGQGTTVTVSS
VL: QAVVTQEPSLTVSPGGTVTLTCRSSTGAVTTRNYANWVQQKPGQAPRGLIGGTNKRAPGVPARFSGSLLGDKAALTLLGAQPEDEAEYYCALWYSNLWVFGQGTKLTVLG
B10: hzsp34.85 (antibody, human IgG1, lambda, L234A L235A, V domains shown)
VH: EVQLVESGGGLVQPGGSLKLSCAASGFTFNTYAMNWVRQASGKGLEWVGRIRSKYNGYATYYADSVKDRFTISRDDSKSTLYLQMNSLKTEDTAVYYCARHGNFGQSYVSWFAYWGQGTTVTVSS
VL: QAVVTQEPSLTVSPGGTVTLTCRSSTGAVTTSNYANWVQQKPGQAPRGLIGGTNKRAPGVPARFSGSLLGDKAALTLLGAQPEDEAEYYCALWYSNLWVFGQGTKLTVLG
B11: hzsp34.100 (antibody, human IgG1, lambda, L234A L235A, V domains shown)
VH: EVQLVESGGGLVQPGGSLKLSCAASGFTFNTYAMNWVRQASGKGLEWVGRIRSKYNNYATYYADSVKDRFTISRDDSKSTLYLQMNSLKTEDTAVYYCARHGNFGGRYVSWFAYWGQGTTVTVSS
VL: QAVVTQEPSLTVSPGGTVTLTCRSSTGAVTTSNYANWVQQKPGQAPRGLIGGTNKRAPGVPARFSGSLLGDKAALTLLGAQPEDEAEYYCALWYSNLWVFGQGTKLTVLG
B12: hzsp34.86 (antibody, human IgG1, lambda, L234A L235A, V domains shown)
VH: EVQLVESGGGLVQPGGSLKLSCAASGFTFNTYAMNWVRQASGKGLEWVGRIRSKYNNYATYYADSVKDRFTISRDDSKSTLYLQMNSLKTEDTAVYYCARAGNFGQSYVSWFAYWGQGTTVTVSS
VL: QAVVTQEPSLTVSPGGTVTLTCRSSTGAVTTSNYANWVQQKPGQAPRGLIGGTNKRAPGVPARFSGSLLGDKAALTLLGAQPEDEAEYYCALWYSNLWVFGQGTKLTVLG
B13: hzsp34.84 (antibody, human IgG1, lambda, L234A L235A, V domains shown)
VH: EVQLVESGGGLVQPGGSLKLSCAASGFTFNTYAMNWVRQASGKGLEWVGRIRSKYGNYATYYADSVKDRFTISRDDSKSTLYLQMNSLKTEDTAVYYCARHGNFGQSYVSWFAYWGQGTTVTVSS
VL: QAVVTQEPSLTVSPGGTVTLTCRSSTGAVTTSNYANWVQQKPGQAPRGLIGGTNKRAPGVPARFSGSLLGDKAALTLLGAQPEDEAEYYCALWYSNLWVFGQGTKLTVLG
B14: hzsp34.90 (antibody, human IgG1, lambda, L234A L235A, V domains shown)
VH: EVQLVESGGGLVQPGGSLKLSCAASGFTFNTYAMNWVRQASGKGLEWVGRIRSKYNNYATYYADSVKDRFTISRDDSKSTLYLQMNSLKTEDTAVYYCARHGNFYQSYVSWFAYWGQGTTVTVSS
VL: QAVVTQEPSLTVSPGGTVTLTCRSSTGAVTTSNYANWVQQKPGQAPRGLIGGTNKRAPGVPARFSGSLLGDKAALTLLGAQPEDEAEYYCALWYSNLWVFGQGTKLTVLG
B15: hzsp34.79 (antibody, human IgG1, lambda, L234A L235A, V domains shown)
VH: EVQLVESGGGLVQPGGSLKLSCAASGFTFNGYAMNWVRQASGKGLEWVGRIRSKYNNYATYYADSVKDRFTISRDDSKSTLYLQMNSLKTEDTAVYYCARHGNFGQSYVSWFAYWGQGTTVTVSS
VL: QAVVTQEPSLTVSPGGTVTLTCRSSTGAVTTSNYANWVQQKPGQAPRGLIGGTNKRAPGVPARFSGSLLGDKAALTLLGAQPEDEAEYYCALWYSNLWVFGQGTKLTVLG

Amino acid sequences for entries named in this document (tags omitted). A change or cut given only in a name is not applied to a line headed by its entry.
UniProt P07766: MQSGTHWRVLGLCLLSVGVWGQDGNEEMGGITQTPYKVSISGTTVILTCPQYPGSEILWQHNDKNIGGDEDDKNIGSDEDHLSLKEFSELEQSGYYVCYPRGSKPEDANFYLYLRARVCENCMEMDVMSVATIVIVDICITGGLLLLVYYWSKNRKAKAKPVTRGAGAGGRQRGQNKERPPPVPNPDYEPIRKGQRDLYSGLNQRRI
UniProt P04234: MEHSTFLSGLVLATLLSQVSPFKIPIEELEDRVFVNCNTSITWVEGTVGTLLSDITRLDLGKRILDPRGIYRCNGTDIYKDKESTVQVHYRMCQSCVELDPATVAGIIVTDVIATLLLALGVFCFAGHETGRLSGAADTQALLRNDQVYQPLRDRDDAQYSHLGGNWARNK
UniProt P09693: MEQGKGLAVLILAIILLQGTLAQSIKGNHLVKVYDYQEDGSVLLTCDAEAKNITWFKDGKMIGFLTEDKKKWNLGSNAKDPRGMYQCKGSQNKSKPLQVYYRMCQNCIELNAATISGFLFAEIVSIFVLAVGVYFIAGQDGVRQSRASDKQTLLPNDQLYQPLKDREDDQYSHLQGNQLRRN

molecular target: human CD3 complex on Jurkat cells (human) (UniProt P07766+P04234+P09693); assay: flow cytometry on Jurkat cells (human CD3 complex), method of Example 3.2

binding, binds:
B1, B2, B3, B4, B5, B6, B7, B8, B9, B10, B11, B12, B13, B14, B15

— patent publication US20230374132A1
